Taken from: PubChem BioAssay AID1224830 (NIAID, 2016)
The deposit covers about 18,000 reagents; shown is a random part of them. Over the whole deposit, about 2,900 (16%) are marked active. 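Calls are made per well; low scores hint the gene aids the LPS response, high scores that it dampens it.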 Repeated entries: four replicate wells of each siRNA pool.

Screen: 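Genes whose knock-down alters the TNF-alpha reporter response to LPS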 (primary screen)
System: human THP-1 monocytic leukaemia cells, TNF dual-luciferase reporter clone, PMA-differentiated to macrophage-like cells
Reagent: siRNA pool against human genes, 50 nM
Timing: LPS for 4 h, given about 3 days after siRNA transfection
Challenge: bacterial LPS (TLR4 ligand), 10 ng/ml
Measured: 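TNF firefly reporter luminescence divided by renilla, normalised to the plate median, then turned into a robust z-score for each replicate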
Scale: TNF reporter robust z-score: higher = stronger TNF reporter response to LPS
Active means: 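a well is active when its z-score exceeds 2.8 or falls below -1.5; control wells carry no call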

Depletion of ALDH6A1 resulted in: TNF reporter robust z-score 0.59; inactive.
Against ALDH6A1 the deposit lists TNF reporter robust z-score 0.19; inactive.
ALDH6A1 showed TNF reporter robust z-score 1.23; inactive.
Against ALDH6A1, the values are TNF reporter robust z-score 1.67; inactive.
Silencing of RAC2 gave: TNF reporter robust z-score -0.54; inactive.
For RAC2 the deposit lists TNF reporter robust z-score 0.13; inactive.
After knock-down of RAC2 the results were TNF reporter robust z-score 0.12; inactive.
RAC2 scored TNF reporter robust z-score 0.42; inactive.
For ARHGAP31 the deposit lists TNF reporter robust z-score -0.69; inactive.
With knock-down of ARHGAP31, the record shows TNF reporter robust z-score 0.72; inactive.
For ARHGAP31, the entry reads TNF reporter robust z-score -0.05; inactive.
With knock-down of ARHGAP31 the results were TNF reporter robust z-score 0.35; inactive.
AP3B2 showed TNF reporter robust z-score -0.87; inactive.
With knock-down of AP3B2 the results were TNF reporter robust z-score -0.22; inactive.
Depletion of AP3B2 resulted in: TNF reporter robust z-score -1.15; inactive.
For AP3B2, the entry reads TNF reporter robust z-score -0.37; inactive.
After knock-down of BOD1, the screen gave TNF reporter robust z-score 0.02; inactive.
Against BOD1, the values are TNF reporter robust z-score 0.97; inactive.
Silencing of BOD1 came out at: TNF reporter robust z-score 0.33; inactive.
Knock-down of BOD1 resulted in: TNF reporter robust z-score -0.07; inactive.

4 of these entries, reformatted.
| Target gene | TNF reporter robust z-score | Outcome |
| --- | --- | --- |
| ARHGAP31 | -0.05 | inactive |
| ARHGAP31 | 0.35 | inactive |
| AP3B2 | -0.87 | inactive |
| AP3B2 | -0.22 | inactive |

Next reagents:
PPP3R2 showed TNF reporter robust z-score -0.95; inactive.
With knock-down of PPP3R2 the results were TNF reporter robust z-score -0.5; inactive.
After knock-down of PPP3R2, the screen gave TNF reporter robust z-score -1.09; inactive.
PPP3R2 showed TNF reporter robust z-score -1.45; inactive.
C4BPB scored TNF reporter robust z-score -1.27; inactive.
C4BPB scored TNF reporter robust z-score -0.55; inactive.
Against C4BPB the deposit lists TNF reporter robust z-score -0.04; inactive.
With knock-down of C4BPB the results were TNF reporter robust z-score -1.17; inactive.
Against PCK2, the entry reads TNF reporter robust z-score -0.39; inactive.
With knock-down of PCK2, the screen gave TNF reporter robust z-score 0.1; inactive.
PCK2 showed TNF reporter robust z-score -0.23; inactive.
With knock-down of PCK2 the results were TNF reporter robust z-score 1.35; inactive.
Against TMEM107, the entry reads TNF reporter robust z-score -1.17; inactive.
TMEM107 gave TNF reporter robust z-score -0.79; inactive.
Silencing of TMEM107 came out at: TNF reporter robust z-score -0.7; inactive.
Silencing of TMEM107 resulted in: TNF reporter robust z-score -1.1; inactive.
After knock-down of BHLHE41, the screen gave TNF reporter robust z-score 0.95; inactive.
After knock-down of BHLHE41, the screen gave TNF reporter robust z-score 0.8; inactive.
With knock-down of BHLHE41, the record shows TNF reporter robust z-score 0.29; inactive.
Depletion of BHLHE41 came out at: TNF reporter robust z-score 1.34; inactive.
For MYCBP2, the entry reads TNF reporter robust z-score -0.53; inactive.
After knock-down of MYCBP2 the results were TNF reporter robust z-score -1.15; inactive.
MYCBP2 scored TNF reporter robust z-score -1.09; inactive.
MYCBP2 showed TNF reporter robust z-score -0.7; inactive.
After knock-down of CALY, the record shows TNF reporter robust z-score -0.37; inactive.
For CALY, the entry reads TNF reporter robust z-score 3.1; active.
Depletion of CALY gave: TNF reporter robust z-score 1.22; inactive.
For CALY, the entry reads TNF reporter robust z-score 2.99; active.
